The whole screen tested about 330,000 compounds, of which about 7,700 (2.3%) were called active. Inconclusive results, whose numbers are uncertain, are shown with a selection of clear calls. The call rests on the fitted dose curve; in most records, active means well fitted inhibition curve with a large enough effect; inconclusive means small, poorly fitted or top-dose-only effect, or effect the other way; inactive means flat fitted curve, though single readings scatter. Where the call is inconclusive, the potency comes from a doubtful curve fit.
Assay: qHTS screen for small molecules that inhibit ELG1-dependent DNA repair in human embryonic kidney (HEK293T) cells expressing luciferase-tagged ELG1; further: nearly all actives have a fitted effect of over 55% in size
Conditions: HEK293T ELG1-luciferase reporter, luminescence, 16 h, DNA damage induced by 5-fluorouridine; series mostly up to 46.1 µM
In short: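 Cells (2,000 per well) received 5-fluorouridine plus test compound or DMSO and were incubated 16 hr at 37 °C, 5% CO2. Luciferase activity was read by luminescence 30 min after ONE-Glo addition; signal suppression marked inhibition of damage-induced ELG1 function.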
For `OCC1(Cc2ccccc2)CCN(C2CCN(c3ccccc3F)CC2)CC1`, the Potency was inconclusive: 32.6 µM [activator, partial curve, poor fit].
For `Cc1csc(SCC(=O)Nc2cccc3nsnc23)n1`, the Potency was active: 2.59 µM.
For `CCNc1ccc(Br)cc(C(=O)/C=C/c2ccc(Cl)cc2)c1=O`, the Potency was active: 20.6 µM.
With `Cc1ccc(S(=O)(=O)CC2CSc3nc4ccccc4n32)cc1` (configuration not stated) the Potency was “inactive”.
In the case of `CCn1c(SCC(=O)N/N=C/c2ccc(C)s2)nc2ccccc21`, the Potency is reported as inconclusive: 6.51 µM [inhibitor, partial curve, poor fit].
For `Cc1cc(S(=O)(=O)NC2CCCCC2)ccc1OCC(=O)NCC1CCCO1` (configuration not stated), the Potency was inconclusive: 8.2 µM [inhibitor, partial curve, poor fit].
With `O=C(N/N=C/c1ccco1)c1ccc2nc[nH]c2c1` the Potency was “inactive”.
For `O=C(Nc1ccc2oc(-c3cccnc3)nc2c1)c1ccc([N+](=O)[O-])o1`, the Potency was inconclusive: 6.51 µM [inhibitor, partial curve].
In the case of `C[N+](C)(C)CCOC(=O)C1(c2ccccc2)CCCC1`, the Potency is reported as “inactive”.
In the case of `COc1ccc(-n2ccn(CC(=O)Nc3ccccc3OC)c(=O)c2=O)cc1`, the Potency is reported as inconclusive: 14.6 µM [activator, partial curve, poor fit].
In the case of `O=C(NC(=S)N1CCCC(O)C1)c1ccco1` (configuration not stated), the Potency is reported as “inactive”.
With `Brc1ccc2oc(-c3ccn[nH]3)cc2c1` the Potency was inconclusive: 2.31 µM [activator, partial curve].
In the case of `Cc1ccc(-n2c(C)cc(/C=N/NC(=O)CC3(C)OCCO3)c2C)cc1`, the Potency is reported as inconclusive: 23.1 µM [activator, single point].
For `O=C(Cn1cc(F)c(=O)[nH]c1=O)NCCO`, the Potency was “inactive”.
In the case of `CN1CCN(C(=O)c2cccn(Cc3cccc(Cl)c3)c2=O)CC1`, the Potency is reported as “inactive”.
With `O=C(COc1ccccc1)Nc1nc2c(s1)CCCC2` the Potency was inconclusive: 20.6 µM [activator, partial curve].
In the case of `CCC(=O)Nc1cccc(NC(=S)NC(=O)c2cc3ccccc3o2)c1`, the Potency is reported as inconclusive: 2.31 µM [activator, partial curve].
With `O=C(CN1CCN(c2ccccc2O)CC1)Nc1ccc([N+](=O)[O-])cc1Br` the Potency was inconclusive: 25.9 µM [inhibitor, single point].
For `COCC(=O)N1CCCC(C(=O)c2ccc(-c3ccccc3)c(F)c2)C1` (configuration not stated), the Potency was “inactive”.
In the case of `Fc1cc(F)cc(-c2oncc2-c2nnnn2-c2ccccc2)c1`, the Potency is reported as “inactive”.
For `CCOc1ccc(OCC)c(NC(=O)CN2CCN(c3cc(C)ccc3C)CC2)c1`, the Potency was inconclusive: 16.4 µM [inhibitor, partial curve, poor fit].
With `O=C(c1cccs1)N1CCC(c2nc3ccccc3s2)CC1` the Potency was inconclusive: 10 µM [inhibitor, partial curve, poor fit].
For `CCOC(=O)c1c(NC(=O)CSc2nnc(-c3ccccc3)n2CC)sc(C(C)=O)c1C`, the Potency was inconclusive: 29.1 µM [inhibitor, single point].
In the case of `Cc1ccccc1COc1ccc(/C=N/NC(=O)c2nnn(-c3nonc3N)c2CN2CCC(C)CC2)cc1`, the Potency is reported as “inactive”.
For `O=c1cc(-c2ccccc2)[nH]c2cc(Cl)ccc12`, the Potency was “inactive”.
For `COC(=O)Cn1c(SCc2ccccc2)nc2ccccc21`, the Potency was inconclusive: 23.1 µM [activator, partial curve].
For `Cc1cccc(CS(=O)(=O)c2nnc([C@H](Cc3ccccc3)NC(=O)OC(C)(C)C)o2)c1`, the Potency was “inactive”.
For `Cc1ccc(NC(=O)c2cc(C(=O)c3cc(Cl)ccc3O)cn(-c3ccc(C)cc3)c2=O)cc1`, the Potency was active: 25.9 µM.
With `O=C(Nc1ccc2c(c1)OCCO2)c1cccc(S(=O)(=O)N2CCOCC2)c1` the Potency was inconclusive: 29.1 µM [activator, single point].
For `O=C(CSc1nc(NS(=O)(=O)c2ccccc2)cc(=O)[nH]1)Nc1ccc(F)cc1`, the Potency was inconclusive: 20.6 µM [activator, partial curve, poor fit].
In the case of `CC(C)Nc1nc(-c2ccccc2)nnc1-c1ccccc1`, the Potency is reported as inconclusive: 14.6 µM [inhibitor, partial curve].
In the case of `Cc1oc(-c2ccccc2F)nc1CS(=O)(=O)CC(=O)N1CCN(c2ccccc2)CC1`, the Potency is reported as inconclusive: 23.1 µM [inhibitor, single point].
For `Cc1ccc(NC(=O)CN2CCC(NC(=O)Cc3ccccc3)CC2)c(C)c1`, the Potency was “inactive”.
For `O=c1c(Oc2ccccc2F)coc2cc(OCc3cnn(-c4ccccc4)c3)ccc12`, the Potency was inconclusive: 29.1 µM [activator, partial curve, poor fit].
For `CC(C)(C)C(=O)Nc1ccc(C(=O)NNC(=O)Cc2ccccc2)cc1`, the Potency was inconclusive: 25.9 µM [activator, single point].
With `COc1cc(/C=C/C(=O)CC(=O)/C=C/c2ccc(O)c(OC)c2)ccc1O` the Potency was inconclusive: 29.1 µM [inhibitor, single point].
With `Cc1cc(Br)ccc1NC(=O)CNC(=O)CSc1ncccn1` the Potency was “inactive”.
In the case of `CCc1cc2c(=O)n(CCC(C)C)c(=S)[nH]c2s1`, the Potency is reported as inconclusive: 23.1 µM [inhibitor, single point].
For `COc1ccc(OC)c(CNCc2ccc3c(c2)OCO3)c1`, the Potency was “inactive”.
With `CCOC(=O)c1c(-c2cccc([N+](=O)[O-])c2)csc1NC(=O)C1CCCCC1` the Potency was inconclusive: 18.4 µM [inhibitor, partial curve, poor fit].
In the case of `N#C/C(=C\C=C\c1ccccc1[N+](=O)[O-])C(=O)NCc1ccccc1`, the Potency is reported as inconclusive: 29.1 µM [inhibitor, single point].
With `O=C(CSc1ncn[nH]1)Nc1ccccc1-c1ccccc1` the Potency was “inactive”.
With `COc1cc(/C=C2\SC(N)=NC2=O)ccc1O` the Potency was active: 10.3 µM.
In the case of `COc1ccc2c(c1)c1ncn(Cc3ccc(F)cc3)c(=O)c1n2C`, the Potency is reported as “inactive”.
With `COc1cc(OC)cc(-n2nnnc2SCC(=O)N2CCCc3ccccc32)c1` the Potency was inconclusive: 18.4 µM [inhibitor, partial curve].
In the case of `N#CCc1c(C#N)c(N)nc(N2CCCC(CO)C2)c1C#N` (configuration not stated), the Potency is reported as “inactive”.
For `CCCCOc1ccc(C(=O)N/C(=C/C=C/c2ccccc2)C(=O)NC)cc1`, the Potency was inconclusive: 18.4 µM [activator, partial curve, poor fit].

From PubChem BioAssay AID504467 (National Center for Advancing Translational Sciences (NCATS), 2011)
Potency means the concentration at half of the fitted maximal effect.
